These are yes or no findings as the source states them, for the method shown. Binding seen in cells or lysates may run through a third protein. Some results given as binding are weak or reduced against the parent protein; the word gives no strength. For part of these data: Tags and fused reporters may be left off the sequences shown.

Sequences of proteins named here, by UniProt entry; tags and fusion partners are left off.
UniProt P38873: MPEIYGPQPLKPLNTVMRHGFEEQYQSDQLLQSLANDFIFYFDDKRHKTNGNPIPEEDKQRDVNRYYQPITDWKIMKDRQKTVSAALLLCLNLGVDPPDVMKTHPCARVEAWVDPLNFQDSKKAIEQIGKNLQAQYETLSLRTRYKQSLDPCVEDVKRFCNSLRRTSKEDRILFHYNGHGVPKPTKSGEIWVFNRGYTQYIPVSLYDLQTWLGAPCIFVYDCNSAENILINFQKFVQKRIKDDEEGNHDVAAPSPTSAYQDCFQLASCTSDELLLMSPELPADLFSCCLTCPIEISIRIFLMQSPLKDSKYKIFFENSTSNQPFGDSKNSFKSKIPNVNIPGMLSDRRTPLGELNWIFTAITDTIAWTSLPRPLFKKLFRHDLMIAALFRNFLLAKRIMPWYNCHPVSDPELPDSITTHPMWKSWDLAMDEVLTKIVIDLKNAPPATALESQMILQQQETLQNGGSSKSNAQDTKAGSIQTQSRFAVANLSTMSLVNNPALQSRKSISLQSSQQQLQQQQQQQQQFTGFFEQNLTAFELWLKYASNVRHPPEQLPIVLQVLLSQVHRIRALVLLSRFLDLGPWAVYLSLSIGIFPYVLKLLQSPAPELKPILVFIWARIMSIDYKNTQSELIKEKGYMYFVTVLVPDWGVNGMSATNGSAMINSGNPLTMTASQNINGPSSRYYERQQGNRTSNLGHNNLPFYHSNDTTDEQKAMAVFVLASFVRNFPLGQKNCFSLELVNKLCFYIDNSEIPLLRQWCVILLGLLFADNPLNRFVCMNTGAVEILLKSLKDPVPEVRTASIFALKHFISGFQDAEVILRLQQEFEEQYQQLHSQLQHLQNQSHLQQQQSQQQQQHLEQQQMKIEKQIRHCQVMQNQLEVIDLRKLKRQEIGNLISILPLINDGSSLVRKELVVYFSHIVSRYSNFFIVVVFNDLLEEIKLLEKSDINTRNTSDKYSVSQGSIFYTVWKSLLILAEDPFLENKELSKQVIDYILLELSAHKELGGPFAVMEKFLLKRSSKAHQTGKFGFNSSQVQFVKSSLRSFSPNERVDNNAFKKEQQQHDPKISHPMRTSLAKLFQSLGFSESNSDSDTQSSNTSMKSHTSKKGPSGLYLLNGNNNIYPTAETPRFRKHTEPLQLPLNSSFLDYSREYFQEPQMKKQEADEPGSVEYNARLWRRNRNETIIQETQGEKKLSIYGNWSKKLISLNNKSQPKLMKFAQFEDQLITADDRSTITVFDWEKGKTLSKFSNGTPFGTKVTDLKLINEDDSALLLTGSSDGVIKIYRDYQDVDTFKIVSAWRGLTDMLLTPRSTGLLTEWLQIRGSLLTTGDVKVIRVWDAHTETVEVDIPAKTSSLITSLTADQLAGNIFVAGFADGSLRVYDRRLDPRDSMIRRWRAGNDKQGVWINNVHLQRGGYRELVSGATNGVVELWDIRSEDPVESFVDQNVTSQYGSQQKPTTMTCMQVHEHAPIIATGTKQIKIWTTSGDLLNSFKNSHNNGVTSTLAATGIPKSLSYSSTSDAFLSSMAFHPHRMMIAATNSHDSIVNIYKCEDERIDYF
UniProt Q00955: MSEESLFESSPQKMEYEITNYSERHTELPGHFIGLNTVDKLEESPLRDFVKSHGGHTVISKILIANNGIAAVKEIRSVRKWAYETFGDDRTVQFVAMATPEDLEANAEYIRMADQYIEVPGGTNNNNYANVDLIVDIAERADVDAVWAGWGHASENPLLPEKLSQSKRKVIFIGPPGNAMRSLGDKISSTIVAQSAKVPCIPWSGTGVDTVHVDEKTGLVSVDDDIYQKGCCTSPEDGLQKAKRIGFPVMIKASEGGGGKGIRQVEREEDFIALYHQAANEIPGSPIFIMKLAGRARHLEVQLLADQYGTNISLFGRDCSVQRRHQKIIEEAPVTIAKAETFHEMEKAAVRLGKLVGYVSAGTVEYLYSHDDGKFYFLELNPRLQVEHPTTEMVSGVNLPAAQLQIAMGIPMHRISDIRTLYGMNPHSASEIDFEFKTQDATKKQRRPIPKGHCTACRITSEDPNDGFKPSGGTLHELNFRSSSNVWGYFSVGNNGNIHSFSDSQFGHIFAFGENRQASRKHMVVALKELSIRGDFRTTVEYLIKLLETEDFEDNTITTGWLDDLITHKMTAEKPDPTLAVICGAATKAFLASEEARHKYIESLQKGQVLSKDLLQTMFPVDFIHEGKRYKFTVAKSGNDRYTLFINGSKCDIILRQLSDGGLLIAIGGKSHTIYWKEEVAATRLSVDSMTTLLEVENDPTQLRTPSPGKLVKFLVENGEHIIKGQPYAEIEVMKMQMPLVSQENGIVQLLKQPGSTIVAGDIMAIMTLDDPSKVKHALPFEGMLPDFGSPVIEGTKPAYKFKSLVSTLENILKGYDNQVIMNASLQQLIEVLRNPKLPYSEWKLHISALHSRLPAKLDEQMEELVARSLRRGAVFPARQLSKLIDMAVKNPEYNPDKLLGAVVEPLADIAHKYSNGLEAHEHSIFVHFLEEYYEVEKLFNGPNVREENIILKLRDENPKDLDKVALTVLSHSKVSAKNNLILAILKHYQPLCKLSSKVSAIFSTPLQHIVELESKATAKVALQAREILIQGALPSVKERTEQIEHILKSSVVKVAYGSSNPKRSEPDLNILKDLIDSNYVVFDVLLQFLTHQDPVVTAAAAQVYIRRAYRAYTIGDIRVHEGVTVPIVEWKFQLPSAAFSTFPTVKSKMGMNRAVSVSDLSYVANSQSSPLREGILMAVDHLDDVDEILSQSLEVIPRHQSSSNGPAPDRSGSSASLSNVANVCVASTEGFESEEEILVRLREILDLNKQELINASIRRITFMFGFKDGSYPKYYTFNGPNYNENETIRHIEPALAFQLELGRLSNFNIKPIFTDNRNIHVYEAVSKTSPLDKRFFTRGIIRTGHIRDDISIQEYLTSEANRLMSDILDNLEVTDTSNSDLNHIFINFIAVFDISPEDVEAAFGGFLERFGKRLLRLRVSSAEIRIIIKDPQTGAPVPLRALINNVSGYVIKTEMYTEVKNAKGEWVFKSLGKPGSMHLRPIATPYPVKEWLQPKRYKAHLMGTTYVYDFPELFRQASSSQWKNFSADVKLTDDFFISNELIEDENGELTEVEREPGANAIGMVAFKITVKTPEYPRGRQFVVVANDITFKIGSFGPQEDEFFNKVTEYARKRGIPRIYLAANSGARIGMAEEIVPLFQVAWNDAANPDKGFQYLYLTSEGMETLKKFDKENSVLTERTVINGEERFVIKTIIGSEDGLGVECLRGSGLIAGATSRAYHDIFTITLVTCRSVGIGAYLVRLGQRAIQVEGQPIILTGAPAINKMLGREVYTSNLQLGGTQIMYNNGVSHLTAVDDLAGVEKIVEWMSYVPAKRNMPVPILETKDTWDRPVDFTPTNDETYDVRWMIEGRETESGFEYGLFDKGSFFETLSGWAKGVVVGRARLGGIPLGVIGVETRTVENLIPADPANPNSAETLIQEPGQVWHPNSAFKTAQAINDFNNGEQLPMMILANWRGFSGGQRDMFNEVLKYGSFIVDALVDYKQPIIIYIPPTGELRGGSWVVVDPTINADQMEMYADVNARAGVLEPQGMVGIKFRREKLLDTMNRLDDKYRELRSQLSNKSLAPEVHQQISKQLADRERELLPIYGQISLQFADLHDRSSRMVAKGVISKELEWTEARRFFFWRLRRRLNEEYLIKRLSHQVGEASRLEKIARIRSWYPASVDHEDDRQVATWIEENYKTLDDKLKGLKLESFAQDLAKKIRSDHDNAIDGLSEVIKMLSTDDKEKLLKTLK
UniProt P07149: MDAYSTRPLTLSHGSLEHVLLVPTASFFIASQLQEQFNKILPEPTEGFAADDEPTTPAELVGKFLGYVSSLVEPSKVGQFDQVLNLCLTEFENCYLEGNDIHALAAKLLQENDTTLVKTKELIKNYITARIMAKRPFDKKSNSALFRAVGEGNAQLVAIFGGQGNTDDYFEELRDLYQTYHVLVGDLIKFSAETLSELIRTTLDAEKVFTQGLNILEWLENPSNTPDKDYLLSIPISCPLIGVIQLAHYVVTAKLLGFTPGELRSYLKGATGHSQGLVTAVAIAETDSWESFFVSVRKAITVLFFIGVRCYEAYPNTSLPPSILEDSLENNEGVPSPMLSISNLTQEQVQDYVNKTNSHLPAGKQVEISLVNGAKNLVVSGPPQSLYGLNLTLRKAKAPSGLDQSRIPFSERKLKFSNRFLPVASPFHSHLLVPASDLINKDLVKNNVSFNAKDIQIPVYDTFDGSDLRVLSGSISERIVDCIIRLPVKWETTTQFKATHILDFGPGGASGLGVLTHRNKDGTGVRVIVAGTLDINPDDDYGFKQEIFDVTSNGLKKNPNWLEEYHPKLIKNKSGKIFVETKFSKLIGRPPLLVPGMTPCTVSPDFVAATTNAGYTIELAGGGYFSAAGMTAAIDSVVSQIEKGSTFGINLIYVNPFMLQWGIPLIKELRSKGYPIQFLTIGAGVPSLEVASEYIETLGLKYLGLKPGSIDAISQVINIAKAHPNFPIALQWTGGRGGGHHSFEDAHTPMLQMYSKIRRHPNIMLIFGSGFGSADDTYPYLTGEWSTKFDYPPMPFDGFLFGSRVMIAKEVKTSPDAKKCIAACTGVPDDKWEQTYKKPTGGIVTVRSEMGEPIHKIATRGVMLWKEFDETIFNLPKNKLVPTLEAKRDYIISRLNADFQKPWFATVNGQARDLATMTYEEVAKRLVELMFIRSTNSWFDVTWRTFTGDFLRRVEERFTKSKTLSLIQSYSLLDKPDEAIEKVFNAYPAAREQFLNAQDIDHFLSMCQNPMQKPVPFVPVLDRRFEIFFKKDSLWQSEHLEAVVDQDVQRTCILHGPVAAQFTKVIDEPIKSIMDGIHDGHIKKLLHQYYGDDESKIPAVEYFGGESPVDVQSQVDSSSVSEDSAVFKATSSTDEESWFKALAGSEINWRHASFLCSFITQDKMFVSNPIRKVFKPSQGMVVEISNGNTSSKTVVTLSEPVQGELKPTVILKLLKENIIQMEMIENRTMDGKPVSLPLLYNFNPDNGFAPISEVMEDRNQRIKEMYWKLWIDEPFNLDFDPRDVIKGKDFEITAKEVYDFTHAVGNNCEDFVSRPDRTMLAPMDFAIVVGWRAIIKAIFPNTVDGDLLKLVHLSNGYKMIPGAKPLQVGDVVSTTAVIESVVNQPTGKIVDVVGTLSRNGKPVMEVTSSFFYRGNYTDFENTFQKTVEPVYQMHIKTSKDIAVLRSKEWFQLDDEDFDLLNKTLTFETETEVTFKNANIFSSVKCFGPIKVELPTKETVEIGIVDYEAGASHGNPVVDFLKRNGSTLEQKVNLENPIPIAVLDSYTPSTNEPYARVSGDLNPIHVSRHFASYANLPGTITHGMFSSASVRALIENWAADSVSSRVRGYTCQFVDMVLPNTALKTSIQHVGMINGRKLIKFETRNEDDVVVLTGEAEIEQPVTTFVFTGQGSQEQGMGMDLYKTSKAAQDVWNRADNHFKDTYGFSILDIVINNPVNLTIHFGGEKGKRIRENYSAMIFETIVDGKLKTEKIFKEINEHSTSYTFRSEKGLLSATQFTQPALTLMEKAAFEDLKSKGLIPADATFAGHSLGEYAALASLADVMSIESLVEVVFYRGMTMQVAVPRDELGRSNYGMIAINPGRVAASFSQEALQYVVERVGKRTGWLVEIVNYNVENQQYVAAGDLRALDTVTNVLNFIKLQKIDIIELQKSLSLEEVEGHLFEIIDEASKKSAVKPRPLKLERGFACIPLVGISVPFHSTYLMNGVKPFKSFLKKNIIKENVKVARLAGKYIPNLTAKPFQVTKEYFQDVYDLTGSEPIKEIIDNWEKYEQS

The target of assay [1] is T1, Tco89–HA3 (Saccharomyces cerevisiae) (UniProt Q08921).
T1 sequence: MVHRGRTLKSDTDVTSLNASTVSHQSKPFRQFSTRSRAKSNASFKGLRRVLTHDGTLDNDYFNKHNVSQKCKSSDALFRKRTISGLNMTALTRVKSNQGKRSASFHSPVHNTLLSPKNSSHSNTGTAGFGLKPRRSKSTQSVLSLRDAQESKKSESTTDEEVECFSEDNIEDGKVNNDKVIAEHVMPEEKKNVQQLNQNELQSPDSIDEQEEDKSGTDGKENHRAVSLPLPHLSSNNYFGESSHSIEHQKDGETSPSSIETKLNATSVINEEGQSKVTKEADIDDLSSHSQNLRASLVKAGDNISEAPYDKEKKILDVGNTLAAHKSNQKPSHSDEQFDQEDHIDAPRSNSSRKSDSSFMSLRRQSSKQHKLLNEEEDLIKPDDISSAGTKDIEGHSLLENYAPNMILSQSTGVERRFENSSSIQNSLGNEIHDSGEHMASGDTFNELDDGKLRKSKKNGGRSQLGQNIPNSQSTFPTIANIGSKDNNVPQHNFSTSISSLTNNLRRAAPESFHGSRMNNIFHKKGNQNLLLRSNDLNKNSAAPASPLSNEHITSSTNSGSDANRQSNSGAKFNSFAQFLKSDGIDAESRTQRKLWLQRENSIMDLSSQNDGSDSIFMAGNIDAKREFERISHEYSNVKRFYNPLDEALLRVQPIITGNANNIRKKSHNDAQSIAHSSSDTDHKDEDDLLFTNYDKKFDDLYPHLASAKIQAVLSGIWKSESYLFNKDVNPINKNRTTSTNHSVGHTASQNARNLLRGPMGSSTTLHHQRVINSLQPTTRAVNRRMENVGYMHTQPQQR
The assay can be described thus: co-IP; anti-HA magnetic beads on cleared lysates of yeast with genomically tagged proteins (wild type and gtr1Δ gtr2Δ), 2 h at 4 °C; washes with 300 mM NaCl, 10% glycerol, 0.1% Nonidet P40; immunoblot.

Assay [2] concerns the target Kog1–HA3 (Saccharomyces cerevisiae) (UniProt P38873). Described as above.

On to “Acc1–myc13 (from UniProt Q00955 1-2233) (enzyme)”, for which the binding result in assay [1] and in assay [2] was “binds” each time. For the substance “Fas1–myc13 (from UniProt P07149 1-2051) (enzyme)”, in assay [2], the binding entry was “binds”.

For the origin of these results see paper PMC10495264 (Nature Cell Biology, 2023).
